Source: patent US7049292B2, “Therapeutically effective peptides related to preproinsulin” (King's College London, priority 2004, dated 2006)

Test system: anti-inflammatory (IL-10 secreting) CD4+ T lymphocytes in PBMCs
Experiment: IL-10 cytokine ELISPOT (tolerance assay) of PBMCs cultured with peptide
Type: cell-based, human

SMILES: CC(C)C[C@H](NC(=O)[C@H](C)NC(=O)[C@H](CC(C)C)NC(=O)[C@@H]1CCCN1C(=O)[C@H](CCC(N)=O)NC(=O)[C@H](CC(C)C)NC(=O)[C@H](CO)NC(=O)CNC(=O)[C@H](C)NC(=O)CNC(=O)[C@@H]1CCCN1C(=O)CNC(=O)CNC(=O)CN)C(=O)N[C@@H](CCC(=O)O)C(=O)NCC(=O)N[C@@H](CO)C(=O)N[C@@H](CC(C)C)C(=O)N[C@@H](CCC(N)=O)C(=O)N[C@@H](CCCCN)C(=O)O
- IL-10 response, stimulation index (SI): 7.0, 3.2, 19.2

For part of its entries the source gives two or more results. Only these are listed. An entry can have further records. Values given together do not match, cause unknown; dose, time, organism, isomer or construct need not be as stated for each record.
